Source: the supplement of paper PMC4604168 (melanoma cell lines)
Some of the results follow. Many values rest on one well or one pass, so single values are uncertain.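 The apoptosis fraction was the count of cleaved-PARP antibody-stained nuclei relative to all DNA-stained nuclei, imaged in 1,536-well plates. Screening doses were set so most cells survived, and baseline and induced cleaved-PARP levels vary greatly across cell lines.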

The compounds below were run on MeWo (assay: cleaved PARP positive nuclei fraction relative to DMSO control; melanoma cells; higher = more apoptosis). Settings: library dose: low library concentration; 72 h.

Row | Compound | cleaved PARP positive nuclei fraction [%]
1 | CC(=O)c1c(C)c2cnc(Nc3ccc(N4CCNCC4)cn3)nc2n(C2CCCC2)c1=O [palbociclib] + Nc1cccc2c1CN(C1CCC(=O)NC1=O)C2=O [lenalidomide] (first compound 0.04 µM, partner dose 1 µM) | 53.1
2 | CC(=O)c1c(C)c2cnc(Nc3ccc(N4CCNCC4)cn3)nc2n(C2CCCC2)c1=O [palbociclib] + COc1ccc(Cl)c(Nc2nc3ccccc3nc2NS(=O)(=O)c2cccc(NC(=O)C(C)(C)N)c2)c1 [XL147] (first compound 0.04 µM, partner dose 0.8 µM) | 73.4
3 | CC(=O)c1c(C)c2cnc(Nc3ccc(N4CCNCC4)cn3)nc2n(C2CCCC2)c1=O [palbociclib] + Cc1nc(Nc2ncc(C(=O)Nc3c(C)cccc3Cl)s2)cc(N2CCN(CCO)CC2)n1 [dasatanib] (first compound 0.04 µM, partner dose 0.004 µM) | 80.4
4 | C=CCNC1=C2C[C@@H](C)C[C@H](OC)[C@H](O)[C@@H](C)/C=C(\C)[C@H](OC(N)=O)[C@@H](OC)/C=C\C=C(/C)C(=O)NC(=CC1=O)C2=O [Tanespimycin] + COc1ccc(Cl)c(Nc2nc3ccccc3nc2NS(=O)(=O)c2cccc(NC(=O)C(C)(C)N)c2)c1 [XL147] (first compound 0.002 µM, partner dose 0.8 µM) | 161
5 | OCc1c[nH]c2ccccc12 [Indole-3-carbinol] + C#Cc1cccc(Nc2ncnc3cc(OCCOC)c(OCCOC)cc23)c1 [erlotinib] (first compound 0.8 µM, partner dose 0.8 µM) | 87.7
6 | CC(=O)c1c(C)c2cnc(Nc3ccc(N4CCNCC4)cn3)nc2n(C2CCCC2)c1=O [palbociclib] + C[C@]1(c2nc3c(C(N)=O)cccc3[nH]2)CCCN1 [Veliparib] (first compound 0.04 µM, partner dose 1.4 µM) | 94
7 | C=CCNC1=C2C[C@@H](C)C[C@H](OC)[C@H](O)[C@@H](C)/C=C(\C)[C@H](OC(N)=O)[C@@H](OC)/C=C\C=C(/C)C(=O)NC(=CC1=O)C2=O [Tanespimycin] + C#Cc1cccc(Nc2ncnc3cc(OCCOC)c(OCCOC)cc23)c1 [erlotinib] (first compound 0.002 µM, partner dose 0.8 µM) | 70.9
8 | C=CCNC1=C2C[C@@H](C)C[C@H](OC)[C@H](O)[C@@H](C)/C=C(\C)[C@H](OC(N)=O)[C@@H](OC)/C=C\C=C(/C)C(=O)NC(=CC1=O)C2=O [Tanespimycin] + Clc1ccc(Nc2nnc(Cc3ccncc3)c3ccccc23)cc1 [vatalanib] (first compound 0.002 µM, partner dose 2 µM) | 99.9
9 | COCC[n+]1c2c(n(Cc3cnccn3)c1C)C(=O)c1ccccc1C2=O + Nc1cccc2c1CN(C1CCC(=O)NC1=O)C2=O [lenalidomide] (first compound 0.0004 µM, partner dose 1 µM) | 76
10 | C#Cc1cccc(Nc2ncnc3cc(OCCOC)c(OCCOC)cc23)c1 [erlotinib] + C[C@]1(c2nc3c(C(N)=O)cccc3[nH]2)CCCN1 [Veliparib] (first compound 0.8 µM, partner dose 1.4 µM) | 119
11 | CC(=O)c1c(C)c2cnc(Nc3ccc(N4CCNCC4)cn3)nc2n(C2CCCC2)c1=O [palbociclib] + C#Cc1cccc(Nc2ncnc3cc(OCCOC)c(OCCOC)cc23)c1 [erlotinib] (first compound 0.04 µM, partner dose 0.8 µM) | 90.2
12 | Nc1cccc2c1CN(C1CCC(=O)NC1=O)C2=O (configuration not stated) [lenalidomide] + COc1cc(Nc2ncc(F)c(Nc3ccc4c(n3)NC(=O)C(C)(C)O4)n2)cc(OC)c1OC [Tamatinib] (first compound 1 µM, partner dose 0.4 µM) | 84.4
13 | C[C@]1(c2nc3c(C(N)=O)cccc3[nH]2)CCCN1 [Veliparib] + CC(C)(C)c1cnc(CSc2cnc(NC(=O)C3CCNCC3)s2)o1 [SNS-032] (first compound 1.4 µM, partner dose 0.01 µM) | 106
14 | Cc1nc(Nc2ncc(C(=O)Nc3c(C)cccc3Cl)s2)cc(N2CCN(CCO)CC2)n1 [dasatanib] + Nc1cccc2c1CN(C1CCC(=O)NC1=O)C2=O [lenalidomide] (first compound 0.004 µM, partner dose 1 µM) | 127
15 | CC(=O)c1c(C)c2cnc(Nc3ccc(N4CCNCC4)cn3)nc2n(C2CCCC2)c1=O [palbociclib] + OCc1c[nH]c2ccccc12 [Indole-3-carbinol] (first compound 0.04 µM, partner dose 0.8 µM) | 54.7
16 | Clc1ccc(Nc2nnc(Cc3ccncc3)c3ccccc23)cc1 [vatalanib] + COCC[n+]1c2c(n(Cc3cnccn3)c1C)C(=O)c1ccccc1C2=O [YM155] (first compound 2 µM, partner dose 0.0004 µM) | 795

Row | Compound | cleaved PARP positive nuclei fraction [%]
17 | CC1(C)NC(=O)N(c2ccc([N+](=O)[O-])c(C(F)(F)F)c2)C1=O [nilutamide] + O=C(Nc1cccc(Cl)c1)Nc1ncc(CCNc2ncnc3ccsc23)s1 [SNS314] (first compound 1 µM, partner dose 0.0008 µM) | 141
18 | Nc1cccc2c1CN(C1CCC(=O)NC1=O)C2=O (configuration not stated) [lenalidomide] + C[C@]1(c2nc3c(C(N)=O)cccc3[nH]2)CCCN1 [Veliparib] (first compound 1 µM, partner dose 1.4 µM) | 82.6
19 | OCc1c[nH]c2ccccc12 [Indole-3-carbinol] + COc1ccc(Cl)c(Nc2nc3ccccc3nc2NS(=O)(=O)c2cccc(NC(=O)C(C)(C)N)c2)c1 [XL147] (first compound 0.8 µM, partner dose 0.8 µM) | 50.5
20 | CC(=O)c1c(C)c2cnc(Nc3ccc(N4CCNCC4)cn3)nc2n(C2CCCC2)c1=O [palbociclib] + Clc1ccc(Nc2nnc(Cc3ccncc3)c3ccccc23)cc1 [vatalanib] (first compound 0.04 µM, partner dose 2 µM) | 89.5
21 | Cn1nnc2c(C(N)=O)ncn2c1=O [temozolomide] + C[C@@H]1CCN(C(=O)CC#N)C[C@@H]1N(C)c1ncnc2[nH]ccc12 [CP690550] (first compound 2 µM, partner dose 1 µM) | 182
22 | Cc1nc(Nc2ncc(C(=O)Nc3c(C)cccc3Cl)s2)cc(N2CCN(CCO)CC2)n1 [dasatanib] + Cn1nnc2c(C(N)=O)ncn2c1=O [temozolomide] (first compound 0.004 µM, partner dose 2 µM) | 84.3
23 | OCc1c[nH]c2ccccc12 [Indole-3-carbinol] + COCC[n+]1c2c(n(Cc3cnccn3)c1C)C(=O)c1ccccc1C2=O [YM155] (first compound 0.8 µM, partner dose 0.0004 µM) | 174
24 | Clc1ccc(Nc2nnc(Cc3ccncc3)c3ccccc23)cc1 [vatalanib] + C=CCn1c(=O)c2cnc(Nc3ccc(N4CCN(C)CC4)cc3)nc2n1-c1cccc(C(C)(C)O)n1 [MK1775] (first compound 2 µM, partner dose 0.02 µM) | 164
25 | C#Cc1cccc(Nc2ncnc3cc(OCCOC)c(OCCOC)cc23)c1 [erlotinib] + COCC[n+]1c2c(n(Cc3cnccn3)c1C)C(=O)c1ccccc1C2=O [YM155] (first compound 0.8 µM, partner dose 0.0004 µM) | 124
26 | Cc1nc(Nc2ncc(C(=O)Nc3c(C)cccc3Cl)s2)cc(N2CCN(CCO)CC2)n1 [dasatanib] + Cn1c(Nc2ccc(C(F)(F)F)cc2)nc2cc(Oc3ccnc(-c4ncc(C(F)(F)F)[nH]4)c3)ccc21 [CHIR265] (first compound 0.004 µM, partner dose 0.08 µM) | 231
27 | CC(C)(C)c1cnc(CSc2cnc(NC(=O)C3CCNCC3)s2)o1 + Cc1cc(N2CCOCC2)cc2[nH]c(-c3c(NC[C@@H](O)c4cccc(Cl)c4)cc[nH]c3=O)nc12 [BMS536924] (first compound 0.01 µM, partner dose 0.2 µM) | 154
28 | OCc1c[nH]c2ccccc12 [Indole-3-carbinol] + Nc1cccc2c1CN(C1CCC(=O)NC1=O)C2=O [lenalidomide] (first compound 0.8 µM, partner dose 1 µM) | 50.5
29 | Cn1c(Nc2ccc(C(F)(F)F)cc2)nc2cc(Oc3ccnc(-c4ncc(C(F)(F)F)[nH]4)c3)ccc21 + Nc1cccc2c1CN(C1CCC(=O)NC1=O)C2=O [lenalidomide] (first compound 0.08 µM, partner dose 1 µM) | 158
30 | Clc1ccc(Nc2nnc(Cc3ccncc3)c3ccccc23)cc1 [vatalanib] + Cc1nc(Nc2ncc(C(=O)Nc3c(C)cccc3Cl)s2)cc(N2CCN(CCO)CC2)n1 [dasatanib] (first compound 2 µM, partner dose 0.004 µM) | 123
31 | OCc1c[nH]c2ccccc12 [Indole-3-carbinol] + O=S(=O)(c1ccccc1)N(CC(F)(F)F)c1ccc(C(O)(C(F)(F)F)C(F)(F)F)cc1 [T0901317] (first compound 0.8 µM, partner dose 1.4 µM) | 52.6
32 | C=CCNC1=C2C[C@@H](C)C[C@H](OC)[C@H](O)[C@@H](C)/C=C(\C)[C@H](OC(N)=O)[C@@H](OC)/C=C\C=C(/C)C(=O)NC(=CC1=O)C2=O [Tanespimycin] + Nc1cccc2c1CN(C1CCC(=O)NC1=O)C2=O [lenalidomide] (first compound 0.002 µM, partner dose 1 µM) | 116

From entry 24 to 25, copied from above:
Row | Compound | cleaved PARP positive nuclei fraction [%]
24 | Clc1ccc(Nc2nnc(Cc3ccncc3)c3ccccc23)cc1 [vatalanib] + C=CCn1c(=O)c2cnc(Nc3ccc(N4CCN(C)CC4)cc3)nc2n1-c1cccc(C(C)(C)O)n1 [MK1775] (first compound 2 µM, partner dose 0.02 µM) | 164
25 | C#Cc1cccc(Nc2ncnc3cc(OCCOC)c(OCCOC)cc23)c1 [erlotinib] + COCC[n+]1c2c(n(Cc3cnccn3)c1C)C(=O)c1ccccc1C2=O [YM155] (first compound 0.8 µM, partner dose 0.0004 µM) | 124
